Test results reported in PubChem BioAssay AID1671190 (National Center for Advancing Translational Sciences (NCATS), 2021).
Several values for one entry are separate records, joined by “and”; a condition that tells them apart may be missing. Equal entries are not always repeated. The whole screen tested about 580,000 compounds, of which about 6,100 (1.1%) were called active. Inconclusive means that the source gave no clear call. Such entries were picked first, then a sample of the others. Calls come from the whole dose curve; as a rule, active = well fitted inhibition curve with a large enough effect; inconclusive = small, poorly fitted or top-dose-only effect, or another doubt; inactive = no such curve, though single readings can be large or run the other way. Where the call is inconclusive, the potency comes from a doubtful curve fit.

Amino acid sequences for entries named in this document (tags omitted). A change or cut given only in a name is not applied to a line headed by its entry.
UniProt P18054: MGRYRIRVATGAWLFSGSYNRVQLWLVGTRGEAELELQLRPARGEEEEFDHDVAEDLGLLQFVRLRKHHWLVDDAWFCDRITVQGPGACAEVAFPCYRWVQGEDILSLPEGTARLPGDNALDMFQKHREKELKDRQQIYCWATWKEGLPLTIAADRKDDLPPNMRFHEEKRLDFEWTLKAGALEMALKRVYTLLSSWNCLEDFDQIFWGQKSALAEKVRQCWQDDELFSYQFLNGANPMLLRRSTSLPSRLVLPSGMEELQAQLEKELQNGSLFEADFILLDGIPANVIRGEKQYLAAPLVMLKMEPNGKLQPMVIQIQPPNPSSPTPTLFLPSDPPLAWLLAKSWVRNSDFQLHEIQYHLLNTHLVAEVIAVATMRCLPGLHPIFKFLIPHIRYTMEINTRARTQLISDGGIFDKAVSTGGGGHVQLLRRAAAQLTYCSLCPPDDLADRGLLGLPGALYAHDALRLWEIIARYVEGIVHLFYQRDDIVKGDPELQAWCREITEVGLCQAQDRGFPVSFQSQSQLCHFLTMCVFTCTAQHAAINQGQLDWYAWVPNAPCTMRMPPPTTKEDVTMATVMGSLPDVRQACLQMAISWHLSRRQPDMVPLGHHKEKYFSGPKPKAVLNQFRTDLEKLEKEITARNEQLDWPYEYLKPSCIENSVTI

molecular target: Polyunsaturated fatty acid lipoxygenase ALOX12 (Homo sapiens) (UniProt P18054); assay: Primary qHTS assay for inhibitors of human arachidonate 12S-lipoxygenase (ALOX12): Round 2; conditions: purified 12hLO, xylenol orange hydroperoxide absorbance; activity change, negative = inhibition: at 108 µM (top of the series) unless noted
Outline: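 Hydroperoxide product was detected by ferrous iron/xylenol orange as the 573 to 405 nm absorbance ratio. Arachidonic acid at 40 uM (final) was turned over for 30 min at room temperature by 150 nM human 12hLO, pH 7.0 Hepes buffer, after 15 min compound preincubation.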
% is set by controls: 0 for no effect and ±100 for the full control effect; potency is the fitted concentration of half-maximal effect.

Structure (SMILES) | Potency | activity change, negative = inhibition
CCN(CC(=O)N1CCOCC1)S(=O)(=O)c1ccccc1 | inconclusive: 4.47 µM [inhibitor, full curve, poor fit] | –
N#Cc1ccc(NCc2cc(Br)ccc2F)cc1 | inconclusive: 1.26 µM [inhibitor, partial curve, poor fit] | –
CCCCC[C@@H]1C=C(C(=O)O)[C@H](c2ccc(Br)cc2)N1S(=O)(=O)c1ccc(C)cc1 | active: 35.5 µM | –
COc1cccc(-c2noc(C3CC(=O)N(c4ccc(F)cc4)C3)n2)c1OC (stereo unspecified) | inconclusive: 79.4 µM [inhibitor, partial curve, poor fit] | –
CCCCCC#Cc1ccc(-c2ccc(CCCCC)cn2)cc1 | – | inactive: 38.1%
Clc1ccc(OCCOCCNCc2ccccc2)cc1Cl | inconclusive: 11.2 µM [inhibitor, full curve] | –
COc1cc(C(F)(F)F)c(C(=O)N(C)Cc2ccc(Cl)c(Cl)c2)cn1 | inconclusive: 141 µM [inhibitor, single point] | –
Cc1nc(NC2CCCC2)sc1C(=O)NCCC(C)C | active: 20 µM | –
CCOC(=O)c1c(O)c2ccccc2n(C)c1=O | – | inactive: -17.8%
Cc1ccccc1NC(=O)CSc1nc2ccc(NC(=O)c3cccs3)cc2s1 | – | inactive: -11.6%
O=C1CCC2(C(=O)NCCc3ccccc3)CCCC=C2N1c1ccccc1 (stereo unspecified) | – | inactive: 43.6%
O=S(=O)(c1ccc(=S)[nH]c1)N1CCCC1 | inconclusive: 1.58 µM [inhibitor, full curve, poor fit] | –
CN(C)C(=O)CCc1ccc(NC(=O)c2ccccc2)cc1 | inconclusive: 112 µM [inhibitor, single point] | –
O=C(c1ccc(F)cc1)N1CCN(C2CCC(c3ccccc3)CC2)CC1 (stereo unspecified) | inconclusive: 39.8 µM [inhibitor, partial curve] | –
COc1cccc2cc(C(=O)Nc3c(C)cccc3C)c(=O)oc12 | inconclusive: 89.1 µM [inhibitor, partial curve, poor fit] | –
COc1cc2c(cc1OC)C(c1ccc(C)cc1)OC2=O (stereo unspecified) | inconclusive: 7.08 µM [inhibitor, partial curve, poor fit] | –
COc1ccc(-c2nc[nH]c2[N+](=O)[O-])cc1 | – | inactive: -9.98%
CCN(CC)S(=O)(=O)c1cccc(C(=O)NCC2CCCCC2)c1 | – | inactive: -8.68%
O=c1c(Br)c(-c2ccccc2Br)[nH]c2ccccc12 | – | inactive: -15.7%
N#CC(C#N)=NNc1ccc([N+](=O)[O-])cc1 | inconclusive: 39.8 µM [inhibitor, partial curve, poor fit] | –
NC(=O)N/N=C/c1sc(N2CCCCC2)nc1-c1cccs1 | – | inactive: -9.17%
CCCCC1=CC2=CC(=O)C(C)(OC(=O)CC)C(=O)C2=CN1CCc1ccc(Br)cc1 (stereo unspecified) | active: 39.8 µM | –
Cn1c(=O)c2c(nc(N3CCc4ccccc4C3)n2Cc2c(F)cccc2Cl)n(C)c1=O | – | inactive: 8.51%

Structure (SMILES) | Potency | activity change, negative = inhibition
COc1ccc(CNC2CCCCC2C)c(OC)c1 (stereo unspecified) | inconclusive: 0.1 µM [inhibitor, full curve, poor fit] | –
CCc1nc2ccc(C(=O)N(C)CCCN(C)C)cn2c1N(C)Cc1cc2ccccc2s1 | inconclusive: 89.1 µM [inhibitor, single point] | –
CCCn1c(C)cc(C(=O)CSc2nnc(COc3ccccc3Cl)n2C)c1C | – | inactive: 9.65%
Cc1cc(NC(=O)CCN2CCN(Cc3ccccc3)CC2)ccc1Br | active: 3.16 µM and inconclusive: 11.2 µM [inhibitor, full curve, poor fit] | –
COc1ccc(CN2CCN(c3cccc(C)c3C)CC2)cc1OC | inconclusive: 3.55 µM [inhibitor, full curve] | –
Cc1ccc(SCC(=O)Nc2ccc(C(=O)Nc3ccc(O)cc3)cc2)cc1 | inconclusive: 100 µM [inhibitor, partial curve, poor fit] | –
Cc1ccc(/C=C/c2onc(C)c2S(=O)(=O)N2CCC(C(=O)Nc3cc(C)ccc3C)CC2)cc1 | inconclusive: 70.8 µM [inhibitor, partial curve, poor fit] | –
CCC(c1nnnn1C1CCCC1)N1CCN(c2ccccc2)CC1 (stereo unspecified) | inconclusive: 25.1 µM [inhibitor, single point] | –
CC(C)=C(C)c1cc2nc(NCCCN(C)C)n(C)c(=O)c2s1 | inconclusive: 50.1 µM [inhibitor, partial curve, poor fit] | –
O=C(C1=C(O)C(=O)N(CCc2ccccc2)C1c1ccco1)c1ccco1 (stereo unspecified) | inconclusive: 56.2 µM [inhibitor, partial curve, poor fit] | –
O=C(Nc1ccc(F)cc1C(F)(F)F)C1CCN(c2ncccn2)CC1 | inconclusive: 141 µM [inhibitor, partial curve, poor fit] | –
CC(C)N1CC(O)=C(c2nc3ccccc3c(=O)[nH]2)C1=N | – | inactive: 133%
CCOCCCn1c(=NC(=O)c2cccs2)c(C#N)cc2c(=O)n3cccc(C)c3nc21 | inconclusive: 14.1 µM [inhibitor, full curve, poor fit] | –
COC(=O)NC(=S)N1CCOCC1 | inconclusive: 44.7 µM [inhibitor, partial curve, poor fit] | –
Cc1cc(C)c2oc(C(=O)Nc3ccc(S(=O)(=O)N4CCCCCC4)cc3)cc(=O)c2c1 | – | inactive: -22.2%
Cn1cnnc1SCC(=O)NCCC(c1ccccc1)c1ccccc1 | inconclusive: 126 µM [inhibitor, single point] | –
CN(CC(=O)Nc1ccc(N2CCOCC2)cc1)C(=O)CCc1ccccc1Cl | – | inactive: -12.5%
Cc1ccc(C(=O)N/C(=C\c2ccc(-c3ccccc3[N+](=O)[O-])o2)C(=O)NCCCN(C)C)cc1 | – | inactive: 0.586%
CCCS(=O)(=O)N1CCN(Cc2ccncc2)CC1 | inconclusive: 0.631 µM [inhibitor, full curve, poor fit] | –
CCSCCNc1nc(COC)nc2c1cnn2C | – | inactive: 74.9%
O=S(=O)(NNc1cccc(Cl)n1)c1ccc(Cl)cc1 | – | inactive: -6.57%
COc1ccc(N(C(=O)CNC(=O)c2ccco2)C(C(=O)NC2CCCC2)c2ccncc2)cc1 (stereo unspecified) | inconclusive: 44.7 µM [inhibitor, partial curve] | –
OCC1CCCC(n2cnc3c(=S)nc[nH]c32)O1 (stereo unspecified) | inconclusive: 1.12 µM [inhibitor, full curve, poor fit] | –

Two compounds picked at random from those above:
Structure (SMILES) | Potency | activity change, negative = inhibition
Cc1cc(C)c2oc(C(=O)Nc3ccc(S(=O)(=O)N4CCCCCC4)cc3)cc(=O)c2c1 | – | inactive: -22.2%
Cc1cc(NC(=O)CCN2CCN(Cc3ccccc3)CC2)ccc1Br | active: 3.16 µM and inconclusive: 11.2 µM [inhibitor, full curve, poor fit] | –
